Our source for the binding values is paper PMC3271085.

Protein sequences, listed by entry. Tags and fused reporters are not part of them. Residues count along the entry.
UniProt O15444, residues 24-150: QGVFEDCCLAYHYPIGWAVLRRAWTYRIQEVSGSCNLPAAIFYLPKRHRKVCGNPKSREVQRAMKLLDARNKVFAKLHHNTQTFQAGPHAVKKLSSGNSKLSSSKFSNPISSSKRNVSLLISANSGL

This experiment addresses T1, human CCR9 (human) (UniProt P51686).
T1 sequence: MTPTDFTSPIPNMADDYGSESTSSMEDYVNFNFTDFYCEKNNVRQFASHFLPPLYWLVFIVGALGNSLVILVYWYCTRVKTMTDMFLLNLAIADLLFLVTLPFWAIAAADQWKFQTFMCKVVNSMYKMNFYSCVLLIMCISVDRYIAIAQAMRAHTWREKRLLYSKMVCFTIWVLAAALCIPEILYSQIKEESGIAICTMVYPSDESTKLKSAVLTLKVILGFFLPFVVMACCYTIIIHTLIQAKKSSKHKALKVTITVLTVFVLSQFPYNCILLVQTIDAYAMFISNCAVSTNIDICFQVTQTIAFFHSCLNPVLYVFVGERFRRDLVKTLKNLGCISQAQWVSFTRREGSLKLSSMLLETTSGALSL
The experiment can be described thus: radioligand binding; only the binder purified.

No constants are given. Whether binding was seen depends on the method and setting. Some binding calls cover weakened binding; strength is not graded here.

On to “radio-iodinated recombinant human CCL25 (from UniProt O15444 24-150) (ligand)”, for which the binding result was “binds”.
